No constants are given. Whether binding was seen depends on the method and setting. In cells and extracts the contact can be indirect. These calls come from enrichment with a bait or labelling near it, and not all partners need be listed. Where a sequence is shown, tags or fusion partners need not be part of it.
T1: His-PAR-5 (C. elegans) (UniProt P41932)
T1 sequence: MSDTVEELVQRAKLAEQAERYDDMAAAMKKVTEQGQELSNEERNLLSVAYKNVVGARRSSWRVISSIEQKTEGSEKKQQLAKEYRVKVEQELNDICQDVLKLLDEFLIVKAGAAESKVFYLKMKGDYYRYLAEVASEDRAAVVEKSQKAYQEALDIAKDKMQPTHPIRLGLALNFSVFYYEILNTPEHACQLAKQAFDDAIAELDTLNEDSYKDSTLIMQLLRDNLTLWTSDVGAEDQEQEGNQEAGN

B1: AmpR (protein, UniProt P24734 1-296)
chain: MVRPHLPLNALRAFEASARHLSFTRAAIELCVTQAAVSHQVKSLEERLGVALFKRLPRGLMLTHEGESLLPVLCDSFDRIAGLLERFEGGHYRDVLTVGAVGTFTVGWLLPRLEDFQARHPFIDLRLSTHNNRVDIAAEGLDYAIRFGGGAWHGTEALALFEAPLTVLCCPEVAAQLHSPADLLQHTLLRSYRADEWPLWFQAAGLPAHAPLTRSIVFDTSLAMLEAARQGVGVALAPAAMFARQLASESIRRPFATEVSTGSYWLTRLQSRGETSAMLAFRGWLLEMAAVEARGR
B2: PhzA1 (protein, UniProt Q9HWH1 1-162)
chain: MNGQRYRETPLDIERLRRLNRATVERYMAMKGAERLQRHSLFVEDGCAGNWTTESGEPLVFRGHESLRRLAEWLERCFPDWEWHNVRIFETEDPNHFWVECDGRGKALVPGYPQGYCENHYIHSFELENGRIKRNREFMNPIQKLRALGIAVPQIKRDGIPT

Target: T1, His-PAR-5 (C. elegans)
Test: affinity purification with mass spectrometry

Row | Binder | binding
1 | B1 | binds
2 | B2 | binds

— paper doi:10.1101/2024.01.31.578330
